This series can be described thus: Odor descriptors given by a panel of expert perfumers.

Here are results for 31 compounds from patent publication US20100087351A1, “Perfumes for Linear Citrus Release in Rinse-Off Systems” (Quest International Services B.V., priority 2007, published 2010).

For the compound `CC(C)=CCCC(C)C=O` (stereo not shown) [MELONAL], the “Odor Descriptor 1” value is “GREEN” (Table 15), “GREEN” (Table 17) and “GREEN” (Table 19). Also, the “Odor Descriptor 2” value was “ALDEHYDIC” (Table 15), “ALDEHYDIC” (Table 17) and “ALDEHYDIC” (Table 19).

`CCC(C)C(=O)N(C)c1ccccc1` (stereo not shown) [GARDAMIDE]: the “Odor Descriptor” value reads like this: (Table 9) “CITRUS”; (Table 11) “CITRUS”; (Table 13) “CITRUS”. For the same compound, the “Odor Descriptor 1” value runs as follows: (Table 15) “CITRUS”; (Table 17) “CITRUS”; (Table 19) “CITRUS”. Besides, the “Odor Descriptor 2” value is listed as “WOODY” (Table 15), “WOODY” (Table 17) and “WOODY” (Table 19).

Turning to `CC(C)=CCCC(C)CC#N` (stereo not shown) [CITRONELLYL NITRILE], the “Odor Descriptor” value is “CITRUS” (Table 9), “CITRUS” (Table 11) and “CITRUS” (Table 13). Further, the “Odor Descriptor 1” value (Table 15) is “CITRUS”, the “Odor Descriptor 1” value (Table 17) is on record as “CITRUS” and the “Odor Descriptor 1” value (Table 19) is on record as “CITRUS”. Moreover, the “Odor Descriptor 2” value was “NITRILE” (Table 15), “NITRILE” (Table 17) and “NITRILE” (Table 19).

Turning to `C=CCOC(=O)CCC1CCCCC1` [ALLYL CYCLOHXYL PROPIONATE, ALLYL CYCLOHEXYL PROPIONATE], the “Odor Descriptor” value (Table 9) is recorded as “FRUITY”, the “Odor Descriptor” value (Table 11) is reported as “FRUITY” and the “Odor Descriptor” value (Table 13) is on record as “FRUITY”.

On to `CCCCCCCCCCC=CC#N` [TRIDECEN 2 NITRILE], for which the “Odor Descriptor 1” value by setting is: (Table 15) “NITRILE”; (Table 17) “NITRILE”; (Table 19) “NITRILE”. The “Odor Descriptor 2” value (Table 15) is recorded as “CITRUS”, the “Odor Descriptor 2” value (Table 17) is reported as “CITRUS” and the “Odor Descriptor 2” value (Table 19) is reported as “CITRUS”.

`CC1CC(C)(c2ccccc2)CO1` (stereo not shown) [RHUBAFURAN]: the “Odor Descriptor” value runs as follows: (Table 11) “CITRUS/GREEN”; (Table 13) “CITRUS”. Also, the “Odor Descriptor 1” value by setting is: (Table 15) “GREEN”; (Table 17) “GREEN”; (Table 19) “GREEN”. Moreover, the “Odor Descriptor 2” value by setting is: (Table 15) “GRAPEFRUIT”; (Table 17) “GRAPEFRUIT”; (Table 19) “GRAPEFRUIT”.

Turning to `CCCCCCCC=O` [ALDEHYDE C 8 (OCTANAL), OCTANAL], the “Odor Descriptor 1” value is, setting by setting: (Table 15) “ALDEHYDIC”; (Table 17) “ALDEHYDIC”; (Table 19) “ALDEHYDIC”. In addition, the “Odor Descriptor 2” value was “CITRUS” (Table 15), “CITRUS” (Table 17) and “CITRUS” (Table 19).

Turning to `CC(C)CC1CCCC(C)(O)C1` (stereo not shown) [ROSSITOL], the “Odor Descriptor” value by setting is: (Table 9) “CITRUS”; (Table 11) “CITRUS”; (Table 13) “CITRUS”. Also, the “Odor Descriptor 1” value reads like this: (Table 15) “NUGUET”; (Table 17) “CITRUS”; (Table 19) “MUGUET”. The “Odor Descriptor 2” value by setting is: (Table 15) “CITRUS”; (Table 17) “FLORAL”; (Table 19) “CITRUS”.

As to `CC(C)=CCCC(C)=CC=O` [CITRAL], the “Odor Descriptor” value (Table 11) was “CITRUS” and the “Odor Descriptor” value (Table 13) was “CITRUS”.

For `CC1=CC(C)C(C=O)CC1` (stereo not shown) [LIGUSTRAL], the “Odor Descriptor” value (Table 11) is recorded as “GREEN” and the “Odor Descriptor” value (Table 13) is reported as “GREEN”. In addition, the “Odor Descriptor 1” value runs as follows: (Table 15) “GREEN”; (Table 17) “GREEN”; (Table 19) “GREEN”. Besides, the “Odor Descriptor 2” value by setting is: (Table 15) “LEAF”; (Table 17) “LEAF”; (Table 19) “LEAF”.

Consider `CC1=CCC(C=CC(C)C(C)O)C1(C)C` (stereo in doubt) [EBANOL], for which the “Odor Descriptor” value by setting is: (Table 9) “SANDALWOOD”; (Table 11) “SANDALWOOD”; (Table 13) “SANDALWOOD”.

As to `CCCCCCCCCC=CC=O` [MANDARIN ALDEHYDE], the “Odor Descriptor” value (Table 13) is reported as “CITRUS”.

In the case of `CCCCCCCCCCC=O` [ALDEHYDE C11], the “Odor Descriptor” value (Table 13) is “CITRUS”.

As for `C=CC(C)CCCC(C)(C)O` (stereo not shown) [DIHYDROMYRCENOL], the “Odor Descriptor” value is reported as “CITRUS” (Table 9), “CITRUS” (Table 11) and “CITRUS” (Table 13). The “Odor Descriptor 1” value was “CITRUS” (Table 15), “CITRUS” (Table 17) and “CITRUS” (Table 19). Besides, the “Odor Descriptor 2” value runs as follows: (Table 15) “METALLIC”; (Table 17) “METALLIC”; (Table 19) “METALLIC”.

As for `CCCCCCOC(C)=O` [HEXYL ACETATE], the “Odor Descriptor” value runs as follows: (Table 9) “FRUITY”; (Table 11) “FRUITY”; (Table 13) “FRUITY”.

Take `C=CC(C)(O)CCC=C(C)C` (stereo not shown) [LINALOOL, linalool]: the “Odor Descriptor 1” value is, setting by setting: (Table 15) “LINALOOL”; (Table 17) “LINALOOL”; (Table 19) “LINALOOL”.

With `CCC(CC)C(=O)N(C)c1cccc(C)c1` [PARADISAMIDE], the “Odor Descriptor” value (Table 13) is reported as “CITRUS”. Besides, the “Odor Descriptor 1” value (Table 15) is given as “CITRUS”, the “Odor Descriptor 1” value (Table 17) is given as “CITRUS” and the “Odor Descriptor 1” value (Table 19) is “CITRUS”. Also, the “Odor Descriptor 2” value reads like this: (Table 15) “FRUITY”; (Table 17) “FRUITY”; (Table 19) “FRUITY”.

`CC(C)=CCCC(C)CCO` (stereo not shown) [CITRONELLOL]: the “Odor Descriptor” value is “FLORAL” (Table 11) and “FLORAL” (Table 13).

Turning to `CCCCCCCCCCCC#N` [LAURONITRILE], the “Odor Descriptor” value (Table 13) is “CITRUS”.

As to `CCCCCCC#CC(=O)OC` [METHYL OCTINE CARBONATE], the “Odor Descriptor 1” value by setting is: (Table 15) “GREEN”; (Table 17) “GREEN”; (Table 19) “GREEN”. Besides, the “Odor Descriptor 2” value was “VIOLET” (Table 15), “VIOLET” (Table 17) and “VIOLET” (Table 19).

In the case of `CC/C=C\CC/C=C/C=O` [TRANS 2 CIS 6 NONADENAL, TRANS 2 CIS 6 NONADIENAL], the “Odor Descriptor 1” value (Table 15) is “GREEN”, the “Odor Descriptor 1” value (Table 17) is recorded as “GREEN” and the “Odor Descriptor 1” value (Table 19) is reported as “GREEN”. Also, the “Odor Descriptor 2” value by setting is: (Table 15) “CUCUMBER”; (Table 17) “CUCUMBER”; (Table 19) “CUCUMBER”.

Take `CC(=O)OC(C)c1ccccc1` (stereo not shown) [STRALLYL ACETATE, STYRALLYL ACETATE]: the “Odor Descriptor 1” value was “GREEN” (Table 15), “GREEN” (Table 17) and “GREEN” (Table 19). Further, the “Odor Descriptor 2” value reads like this: (Table 15) “FRUITY”; (Table 17) “FRUITY”; (Table 19) “FRUITY”.

Regarding `CCC=C(C)C(O)CCCCC` (stereo not shown) [UNDECAVERTOL, 4-Methyl-3-decen-5-ol], the “Odor Descriptor 1” value is reported as “GREEN” (Table 15), “GREEN” (Table 17) and “GREEN” (Table 19). The “Odor Descriptor 2” value runs as follows: (Table 15) “FRUITY”; (Table 17) “FRUITY”; (Table 19) “FRUITY”.

In the case of `CCOC(=O)CC(C)=O` [ETHYL ACETOACETATE], the “Odor Descriptor” value is listed as “APPLE” (Table 9), “FRUITY” (Table 11) and “FRUITY” (Table 13).

`CC/C=C\CC/C=C/CO` [TRANS 2 CIS 6 NONADENOL, TRANS 2 CIS 6 NONADIENOL]: the “Odor Descriptor 1” value was “GREEN” (Table 15), “GREEN” (Table 17) and “GREEN” (Table 19). Further, the “Odor Descriptor 2” value was “CUCUMBER” (Table 15), “CUCUMBER” (Table 17) and “CUCUMBER” (Table 19).

As to `CCCCCC1C(=O)CCC1CC(=O)OC` (stereo not shown) [METHYL DIHYDRO JASMONATE], the “Odor Descriptor” value is recorded as “FLORAL” (Table 9), “FLORAL” (Table 11) and “FLORAL” (Table 13). Moreover, the “Odor Descriptor 1” value (Table 19) was “FLORAL”.

Regarding `C=C(C)[C@H]1CC=C(C)CC1` [d-LIMONINE, d-1-Methyl-4-isopropenyl-1-cyclohexene], the “Odor Descriptor” value (Table 9) is “CITRUS”, the “Odor Descriptor” value (Table 11) was “CITRUS” and the “Odor Descriptor” value (Table 13) is listed as “CITRUS”. The “Odor Descriptor 1” value is, setting by setting: (Table 15) “CITRUS”; (Table 17) “CITRUS”; (Table 19) “CITRUS”. In addition, the “Odor Descriptor 2” value is, setting by setting: (Table 15) “ORANGE”; (Table 17) “ORANGE”; (Table 19) “ORANGE”.

In the case of `CCCCCCCCCCCC=O` [ALDEHYDE C12 (DODECANAL), DODECANAL], the “Odor Descriptor 1” value is, setting by setting: (Table 15) “ALDEHYDIC”; (Table 17) “ALDEHYDIC”; (Table 19) “ALDEHYDIC”. In addition, the “Odor Descriptor 2” value by setting is: (Table 15) “FATTY/GREASY”; (Table 17) “FATTY/GREASY”; (Table 19) “FATTY/GREASY”.

On to `CCCCCCCCCC=O` [ALDEHYDE C 10 (DECANAL), DECANAL], for which the “Odor Descriptor 1” value runs as follows: (Table 15) “ALDEHYDIC”; (Table 17) “ALDEHYDIC”; (Table 19) “ALDEHYDIC”. Besides, the “Odor Descriptor 2” value is, setting by setting: (Table 15) “ORANGE”; (Table 17) “ORANGE”; (Table 19) “CITRUS”.

For the compound `CCOC(=O)CC1(C)OCCO1` [APPLINAL], the “Odor Descriptor” value by setting is: (Table 9) “APPLE”; (Table 11) “FRUITY”; (Table 13) “FRUITY”.

On to `CC/C=C\CCOC(=O)c1ccccc1O` [CIS-3-HEXENYL SALICYLATE], for which the “Odor Descriptor” value by setting is: (Table 9) “GREEN”; (Table 11) “FLORAL”; (Table 13) “FLORAL”. Further, the “Odor Descriptor 1” value reads like this: (Table 15) “GRASS”; (Table 17) “GRASS”; (Table 19) “GRASS”. Besides, the “Odor Descriptor 2” value is “SALICYLATE” (Table 15), “SALICYLATE” (Table 17) and “SALICYLATE” (Table 19).
